Record: PubChem BioAssay AID1224830 (NIAID, 2016)

Assay: 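Genes whose knock-down alters the TNF-alpha reporter response to LPS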 (primary screen)
Cell system: human THP-1 monocytic leukaemia cells, TNF dual-luciferase reporter clone, PMA-differentiated to macrophage-like cells
Reagent: siRNA pool against human genes, 50 nM
Timing: LPS for 4 h, given about 3 days after siRNA transfection
Challenge: bacterial LPS (TLR4 ligand), 10 ng/ml
Measured: 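TNF firefly reporter luminescence divided by renilla, normalised to the plate median, then turned into a robust z-score for each replicate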
Scale: TNF reporter robust z-score: higher = stronger TNF reporter response to LPS
Rule for the call: 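Each well counts as active if its z-score is over 2.8 or under -1.5; controls are left without a call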
The whole screen tested about 18,000 reagents; below is a random part of them. Of all reagents, about 2,900 (16%) were called active. 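Calls are made per well; low scores hint the gene aids the LPS response, high scores that it dampens it.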 A number with no mark means an inactive call. Repeated entries: four replicate wells of each siRNA pool.

Knock-down of RBM10 [SID315452443] gave: TNF reporter robust z-score -0.35. RBM10 [SID315452443] showed TNF reporter robust z-score -0.6. RBM10 [SID315452443] showed TNF reporter robust z-score -0.92. After knock-down of RBM10 [SID315452443], the screen gave TNF reporter robust z-score -0.74. CDC42 [SID315447825] scored TNF reporter robust z-score -1.08. Knock-down of CDC42 [SID315447825] came out at: TNF reporter robust z-score -1.22.

With knock-down of CDC42 [SID315447825], the screen gave TNF reporter robust z-score -1.18. With knock-down of CDC42 [SID315447825], the record shows TNF reporter robust z-score -0.68. PRKACA [SID315450792] scored TNF reporter robust z-score 2. Knock-down of PRKACA [SID315450792] came out at: TNF reporter robust z-score 0.91. Against PRKACA [SID315450792] the deposit lists TNF reporter robust z-score 0.78. PRKACA [SID315450792] gave TNF reporter robust z-score 0.05.

For TIAL1 [SID315451875], the entry reads TNF reporter robust z-score 0.45. Silencing of TIAL1 [SID315451875] resulted in: TNF reporter robust z-score 2.08. Against TIAL1 [SID315451875] the deposit lists TNF reporter robust z-score 1.02. For TIAL1 [SID315451875] the deposit lists TNF reporter robust z-score 2.91 (active). USP33 [SID315454941] showed TNF reporter robust z-score -0.1. Against USP33 [SID315454941], the values are TNF reporter robust z-score 0.45.

After knock-down of USP33 [SID315454941], the record shows TNF reporter robust z-score -0.33. Knock-down of USP33 [SID315454941] gave: TNF reporter robust z-score -0.37. Silencing of CC2D2B [SID315464448] resulted in: TNF reporter robust z-score 0.48. CC2D2B [SID315464448] scored TNF reporter robust z-score 0.68. After knock-down of CC2D2B [SID315464448] the results were TNF reporter robust z-score 0.44. Depletion of CC2D2B [SID315464448] resulted in: TNF reporter robust z-score 0.37.

Silencing of WNT5B [SID315459840] gave: TNF reporter robust z-score 0.93. With knock-down of WNT5B [SID315459840] the results were TNF reporter robust z-score 4.54 (active). With knock-down of WNT5B [SID315459840], the screen gave TNF reporter robust z-score 1.56. WNT5B [SID315459840] gave TNF reporter robust z-score 1.13. NR1I2 [SID315452878] scored TNF reporter robust z-score 0.01. Depletion of NR1I2 [SID315452878] came out at: TNF reporter robust z-score 0.05.

NR1I2 [SID315452878] gave TNF reporter robust z-score 0.47. NR1I2 [SID315452878] scored TNF reporter robust z-score 0.54. PTCHD1 [SID315462074] scored TNF reporter robust z-score -0.16. PTCHD1 [SID315462074] showed TNF reporter robust z-score 0.28. Knock-down of PTCHD1 [SID315462074] resulted in: TNF reporter robust z-score -0.28. With knock-down of PTCHD1 [SID315462074], the screen gave TNF reporter robust z-score 0.06.

After knock-down of CYP7A1 [SID315448219], the record shows TNF reporter robust z-score 0.06. For CYP7A1 [SID315448219], the values are TNF reporter robust z-score 0.67. CYP7A1 [SID315448219] showed TNF reporter robust z-score 0. CYP7A1 [SID315448219] showed TNF reporter robust z-score 0.52. With knock-down of MSRB3 [SID315463430], the record shows TNF reporter robust z-score -2.06 (active). Knock-down of MSRB3 [SID315463430] came out at: TNF reporter robust z-score -0.83.

Against MSRB3 [SID315463430] the deposit lists TNF reporter robust z-score -1.56 (active). With knock-down of MSRB3 [SID315463430] the results were TNF reporter robust z-score -1.26. After knock-down of C6orf120 [SID315464428] the results were TNF reporter robust z-score -0.61. C6orf120 [SID315464428] showed TNF reporter robust z-score 0.3. With knock-down of C6orf120 [SID315464428], the screen gave TNF reporter robust z-score -0.9. With knock-down of C6orf120 [SID315464428], the screen gave TNF reporter robust z-score -1.41.

Entries listed so far whose gene name begins with M or m (4):
MSRB3 [SID315463430]: TNF reporter robust z-score = -2.06 (active)
MSRB3 [SID315463430]: TNF reporter robust z-score = -0.83
MSRB3 [SID315463430]: TNF reporter robust z-score = -1.56 (active)
MSRB3 [SID315463430]: TNF reporter robust z-score = -1.26
